Assay results published in ChEMBL document CHEMBL4007425, “Drug Repurposing of Histone Deacetylase Inhibitors That Alleviate Neutrophilic Inflammation in Acute Lung Injury and Idiopathic Pulmonary Fibrosis via Inhibiting Leukotriene A4 Hydrolase and Blocking LTB4 Biosynthesis” (J Med Chem, 2017).
The source made the active and inactive calls. The rule behind the calls is not given here.

Experiments:
[1] = molecular target: T1, Leukotriene A-4 hydrolase (Mus musculus) (UniProt P24527); assay: Inhibition of LTA4H epoxide hydrolase in C57BL/6 mouse neutrophils assessed as suppression of fMLP-induced neutrophil migration co-treated with ((2S,3R)-3-amino-2-hydroxy-4-phenylbutanamido)-4-methylpentanoic acid for 30 mins followed by stimulation with fMLP for 1 hr by chemotaxis assay
T1 sequence (whole entry): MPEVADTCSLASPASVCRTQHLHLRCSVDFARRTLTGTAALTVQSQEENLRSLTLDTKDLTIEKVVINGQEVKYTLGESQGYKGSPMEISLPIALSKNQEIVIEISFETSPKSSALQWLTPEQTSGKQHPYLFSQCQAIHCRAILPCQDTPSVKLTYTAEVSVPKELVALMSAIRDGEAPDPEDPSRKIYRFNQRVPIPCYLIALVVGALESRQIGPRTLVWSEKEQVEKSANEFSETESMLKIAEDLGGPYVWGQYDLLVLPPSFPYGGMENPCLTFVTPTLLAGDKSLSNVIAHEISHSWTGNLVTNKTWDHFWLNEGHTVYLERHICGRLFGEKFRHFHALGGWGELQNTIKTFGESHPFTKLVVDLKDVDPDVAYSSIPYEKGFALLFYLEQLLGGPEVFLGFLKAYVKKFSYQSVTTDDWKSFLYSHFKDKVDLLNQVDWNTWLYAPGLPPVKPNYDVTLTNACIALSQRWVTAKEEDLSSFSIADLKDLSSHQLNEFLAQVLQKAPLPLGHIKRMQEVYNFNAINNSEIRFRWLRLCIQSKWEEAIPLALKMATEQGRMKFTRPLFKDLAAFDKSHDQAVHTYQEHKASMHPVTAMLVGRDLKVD

Mus musculus = species: Mus musculus; conditions: C57BL/6, at 25 mg/kg
[2] = molecular target: T2, Leukotriene A-4 hydrolase (LTA4H) aminopeptidase activity (Homo sapiens, UniProt P09960); assay: Inhibition of recombinant human LTA4H aminopeptidase activity expressed in Escherichia coli BL21 (DE3) pLysS assessed as formation of p-NA from Ala-p-NA at 10 uM preincubated for 10 mins followed by substrate addition measured after 10 mins; conditions: probe Ala-p-NA
T2 sequence (P09960 whole entry): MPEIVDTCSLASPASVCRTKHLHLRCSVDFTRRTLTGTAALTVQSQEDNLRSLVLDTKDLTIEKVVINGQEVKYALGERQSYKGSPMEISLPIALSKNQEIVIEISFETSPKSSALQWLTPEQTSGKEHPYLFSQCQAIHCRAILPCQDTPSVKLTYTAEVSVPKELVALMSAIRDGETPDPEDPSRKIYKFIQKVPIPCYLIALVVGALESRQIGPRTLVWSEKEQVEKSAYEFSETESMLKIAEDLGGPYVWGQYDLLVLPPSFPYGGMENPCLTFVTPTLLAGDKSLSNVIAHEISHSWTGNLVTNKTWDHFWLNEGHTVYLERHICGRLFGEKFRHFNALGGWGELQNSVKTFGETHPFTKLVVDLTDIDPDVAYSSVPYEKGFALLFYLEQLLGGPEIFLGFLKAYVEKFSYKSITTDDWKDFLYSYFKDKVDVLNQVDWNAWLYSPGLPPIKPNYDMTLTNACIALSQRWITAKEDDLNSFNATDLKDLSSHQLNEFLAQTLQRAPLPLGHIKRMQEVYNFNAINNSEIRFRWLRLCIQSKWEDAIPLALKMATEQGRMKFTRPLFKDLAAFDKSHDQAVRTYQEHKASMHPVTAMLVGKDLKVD

[3] = molecular target: T3, Leukotriene A-4 hydrolase (Homo sapiens) (UniProt P09960); conditions: at 10 µM
T3 sequence (whole entry): T2 sequence (P09960 whole entry)

Cc1ccc(C(=O)NCCCCCC(=O)Nc2ccccc2N)cc1
inhibition [1]: Active | inhibition (Mus musculus): Active | inhibition at 10 min, 10 µM [2]: > 50% | inhibition [3]: > 50%
